{"source": "patent US12312352B2", "about": "“Use of a DPP-4 inhibitor in SIRS and/or sepsis” (Boehringer ingelheim International GmbH, priority 2012, dated 2025)", "tested_on": "septic mice", "test": "Survival in experimental sepsis, first study: LPS 20 mg/kg i.p. on Day 6 of 7 days treatment", "conditions": "linagliptin 5 mg/kg/d in drinking water (p=0.067), liraglutide 0.2 mg/kg/d s.c. injection (p=0.005), placebo/LPS 100% die within 48 h", "note": "At least one compound was matched to its structure with a doubt left.", "data": [{"smiles": "CCCCCCCCCCCCCCCC(=O)N[C@@H](CCC(=O)NCCCC[C@H](NC(=O)[C@H](C)NC(=O)[C@H](C)NC(=O)[C@H](CCC(N)=O)NC(=O)CNC(=O)[C@H](CCC(=O)O)NC(=O)[C@H](CC(C)C)NC(=O)[C@H](Cc1ccc(O)cc1)NC(=O)[C@H](CO)NC(=O)[C@H](CO)NC(=O)[C@@H](NC(=O)[C@H](CC(=O)O)NC(=O)[C@H](CO)NC(=O)[C@@H](NC(=O)[C@H](Cc1ccccc1)NC(=O)[C@@H](NC(=O)CNC(=O)[C@H](CCC(=O)O)NC(=O)[C@H](C)NC(=O)[C@@H](N)Cc1cnc[nH]1)[C@@H](C)O)[C@@H](C)O)C(C)C)C(=O)N[C@@H](CCC(=O)O)C(=O)N[C@@H](Cc1ccccc1)C(=O)N[C@H](C(=O)N[C@@H](C)C(=O)N[C@@H](Cc1c[nH]c2ccccc12)C(=O)N[C@@H](CC(C)C)C(=O)N[C@H](C(=O)N[C@@H](CCCNC(=N)N)C(=O)NCC(=O)N[C@@H](CCCNC(=N)N)C(=O)NCC(=O)O)C(C)C)[C@@H](C)CC)C(=O)O", "note": "[liraglutide, reference compound]", "values": [{"measurement": "survival vs placebo/LPS group", "value": "significantly improved"}]}]}
